Tested on: A549 cells
Assay: Mammalian cell toxicity (MTT assay) and selectivity index
Assay type: cell-based, Human
Conditions: for C. duobushaemulonii (SI) / C. haemulonii (SI) / C. haemulonii var. vulnera (SI): CC50/GM-MIC; for Overall mean (SI): mean of the SI values against the three species, ratio CC50 / MIC
From the text: Three clinical isolates of each species that form the C. haemulonii complex were used in this study: C. haemulonii (LIPCh4 from finger nail, LIPCh7 from toe nail, and LIPCh12 from blood), C. duobushaemulonii (LIPCh1 from finger nail, LIPCh6 from toe nail, and LIPCh8 from blood) and C. haemulonii var. vulnera (LIPCh5 from toe nail, LIPCh9 from urine, and LIPCh11 from blood) (Ramos et al., [2015]). The fungal isolates were identified by the automatized system VITEK® 2 and then characterized by ITS1-5.8S-ITS2 gene sequencing (Ramos et al., [2015]). Fungal cells were cultured in Sabouraud-dextrose medium under constant agitation (130 rpm) for 48 h at 37°C. Human lung adenocarcinoma A549 cells were maintained in culture flasks containing DMEM medium supplemented with 10% fetal bovine serum at 37°C in an atmosphere of 5% CO2.
The cytotoxicity was evaluated using the MTT [3-(4,5-dimethylthiazol-2-yl)-2,5-diphenyl tetrazolium bromide] (Sigma-Aldrich) assay (Mosmann, [1983]). A549 cells (10^4) were seeded into tissue culture plates (TPP, Switzerland) and cultured for 24 h at 37°C in a 5% CO2 in order to obtain cellular confluence. The wells were then washed twice with DMEM to remove non-adherent cells and the test compounds were added (in concentrations ranging from 0.0313 to 512 μg/mL) to plates containing DMEM, followed by a 48 h incubation period under the same conditions mentioned above. The cellular viability was evaluated by adding MTT to each well and incubating the plates in the dark for 3 h, allowing the viable cells containing active mitochondrial dehydrogenase enzymes to metabolize MTT-tetrazolium salt into purple formazan. The formazan crystals were then dissolved in DMSO (100 μL) and the absorbance (450 nm) measured using a Thermomax Molecular Device microplate reader. The concentration capable of reducing cellular viability by 50% (CC50) was calculated, and the selectivity index (SI) determined using the following equation: A549 CC50/C. haemulonii complex GM-MIC.

In the case of `O=[N+]([O-])[O-].[Ag+]` [AgNO3, reference compound], the “C. duobushaemulonii (SI)” value is reported as 26.95, the “C. haemulonii (SI)” value is reported as 21.39 and the “C. haemulonii var. vulnera (SI)” value is reported as 33.96. The “Overall mean (SI)” value was 27.43.
For `[Cl][Mn][Cl]` [MnCl2, reference compound], the “C. duobushaemulonii (SI)” value was over 4.18, the “C. haemulonii (SI)” value was over 4.18 and the “C. haemulonii var. vulnera (SI)” value was over 4.18. For the same compound, the “Overall mean (SI)” value was over 4.18.
In the case of `CCO.O.O.O.O.O.O.O=C([O-])c1cccc(C(=O)[O-])c1.[Cu+2].c1cnc2c(c1)ccc1cccnc12.c1cnc2c(c1)ccc1cccnc12` [compound 3, [Cu(isoph)(phen)2].6H2O.EtOH], the “C. duobushaemulonii (SI)” value is reported as 0.18, the “C. haemulonii (SI)” value is reported as 0.09 and the “C. haemulonii var. vulnera (SI)” value is reported as 0.14. For the same compound, the “Overall mean (SI)” value was 0.14.
For `O.O.O.O.O=C([O-])c1cccc(C(=O)[O-])c1.O=C([O-])c1cccc(C(=O)[O-])c1.[Mn+2].[Mn+2].c1cnc2c(c1)ccc1cccnc12.c1cnc2c(c1)ccc1cccnc12.c1cnc2c(c1)ccc1cccnc12` [compound 10, [Mn2(isoph)2(phen)3].4H2O], the “C. duobushaemulonii (SI)” value was 40.30, the “C. haemulonii (SI)” value was 40.30 and the “C. haemulonii var. vulnera (SI)” value was 63.97. For the same compound, the “Overall mean (SI)” value was 48.19.
With `O.O.O.O.O.O.O.O.O.O.O.O.O.O.O.O.O=C([O-])c1cccc(C(=O)[O-])c1.O=C([O-])c1cccc(C(=O)[O-])c1.[Mn+2].[Mn+2].c1cnc2c(c1)ccc1cccnc12.c1cnc2c(c1)ccc1cccnc12.c1cnc2c(c1)ccc1cccnc12.c1cnc2c(c1)ccc1cccnc12.c1cnc2c(c1)ccc1cccnc12` [compound 11, {[Mn(phen)2(H2O)2]}2(isoph)2(phen).12H2O] the “C. duobushaemulonii (SI)” value was 99.91, the “C. haemulonii (SI)” value was 99.91 and the “C. haemulonii var. vulnera (SI)” value was 99.91. For the same compound, the “Overall mean (SI)” value was 99.91.

From publication PMC5504357, “Antifungal Potential of Copper(II), Manganese(II) and Silver(I) 1,10-Phenanthroline Chelates Against Multidrug-Resistant Fungal Species Forming the Candida haemulonii Complex: Impact on the Planktonic and Biofilm Lifestyles” (Frontiers in Microbiology, 2017)
